These results are taken from patent publication US20060034833A1 (published 2006).

Protein sequences, listed by entry. Tags and fused reporters are not part of them. Residues count along the entry.
UniProt P01579, residues 24-166: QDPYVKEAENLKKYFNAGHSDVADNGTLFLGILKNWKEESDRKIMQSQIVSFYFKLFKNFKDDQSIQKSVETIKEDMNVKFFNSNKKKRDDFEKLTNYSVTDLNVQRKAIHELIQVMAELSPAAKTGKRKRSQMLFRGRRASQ

Results are given in words; binding and its absence hold for the method and conditions named. Some results given as binding are weak or reduced against the parent protein; the word gives no strength.

The test addresses T1, human IFN-γ receptor (IFN-γ R1) (human) (UniProt P15260).
T1 sequence (looked up): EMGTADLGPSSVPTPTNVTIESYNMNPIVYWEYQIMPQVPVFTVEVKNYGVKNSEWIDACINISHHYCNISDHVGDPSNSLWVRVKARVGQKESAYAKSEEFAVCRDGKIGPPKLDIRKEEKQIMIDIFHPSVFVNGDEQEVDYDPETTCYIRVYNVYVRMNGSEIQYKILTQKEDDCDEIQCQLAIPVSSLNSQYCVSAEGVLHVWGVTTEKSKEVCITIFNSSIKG
Nature of the test: ELISA: biotinylated human IFN-γ on coated human IFN-γ R1, Extravidin-AP. (In general: In an ELISA, binding on a coated surface is turned into a signal by an enzyme label.)

As to “human IFN-gamma (from UniProt P01579 24-166) (ligand)”, the binding result is “binds”.
